From PubChem BioAssay AID1688 (National Center for Advancing Translational Sciences (NCATS), 2009)
Hit rate of the full screen: of about 220,000 compounds, about 2,400 (1.1%) were called active. This list was built around the results that the source calls inconclusive (neither active nor inactive); the mix of calls is not that of the screen. The call rests on the fitted dose curve; in most records, active means well fitted inhibition curve with a large enough effect; inconclusive means small, poorly fitted or top-dose-only effect, or effect the other way; inactive means no such curve, though single readings can be large or run the other way. Potencies beside an inconclusive call are fits to weak or partial responses and may not hold up.

test: qHTS Multiplex Assay to Identify Dual Action Probes in a Cell Model of Huntington: Aggregate Formation (GFP); conditions: PC12 HttQ103-GFP aggregates, Acumen cytometry, 40 h; activity change, negative = inhibition: at 46.1 µM (top of the series) unless noted; further: nearly all actives have a fitted effect of over 60% in size
Outline: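 Aggregates are detected as GFP objects 1–25 µm with signal 6 STDEV over background in lysates of induced PC12 cells. These carry Huntingtin exon 1 with 103 glutamines fused to GFP under an ecdysone promoter; compounds titrated.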
On the % scale 0 is the no-effect control and ±100 the full control effect; potency means the concentration at half of the fitted maximal effect.

| SMILES | activity change, negative = inhibition | Potency |
| --- | --- | --- |
| Cc1ccc(SCc2[nH]nc3c2C2(CCSCC2)C(C#N)=C(N)O3)cc1 | inactive: 5.51% |  |
| COc1ccc(CC(=O)Nc2nnc(C(C)C)s2)cc1OC | inactive: -33.5% [at 9.22 µM] |  |
| O=C(/C=C/c1ccco1)N1CCc2ccccc21 |  | inconclusive: 25.1 µM [activator, single point] |
| CCOc1ccc(NC(=S)c2ccncc2)cc1 |  | inconclusive: 8.91 µM [inhibitor, partial curve] |
| N#CC1=C(N)C(C#N)(C#N)[C@H](c2ccncc2)[C@H]2CN(C(=O)OCc3ccccc3)CC=C12 |  | inconclusive: 20 µM [activator, single point] |
| COc1cccc(-c2nc(CS(=O)(=O)CC(=O)NC3CCCc4ccccc43)c(C)o2)c1 (configuration not stated) |  | inconclusive: 35.5 µM [inhibitor, single point] |
| Cc1ccc(-c2nn(C(C)(C)C)c3ncnc(NS(=O)(=O)c4ccc([N+](=O)[O-])cc4)c23)cc1 |  | inconclusive: 35.5 µM [inhibitor, single point] |
| Cc1cc(N/N=C2/CCCc3ccccc32)nc2ccccc12 |  | inconclusive: 35.5 µM [inhibitor, single point] |
| CCOC(=O)c1c(-c2ccc(C)cc2)csc1/N=C(\C)C1=C(O)c2ccccc2C1=O | inactive: 0.394% [at 9.22 µM] |  |
| Cc1cc(C)n2nc(C(=O)OCCOc3ccc(Br)cc3)nc2n1 |  | inconclusive: 2.24 µM [activator, partial curve] |
| COc1ccc(CCNCc2csc3nc4ccccc4n23)cc1OC |  | active: 7.08 µM |
| O=C(O)C(Cc1ccccc1)N1CCS(=O)(=O)CC1 (configuration not stated) | inactive: 4.89% |  |
| COc1ccc(C(=O)C(CCC(CNC(C)(C)C)C(=O)c2ccc(OC)cc2)CNC(C)(C)C)cc1 (configuration not stated) |  | active: 17.8 µM |
| c1ccc(CNc2ccc3ccccc3n2)nc1 |  | inconclusive: 35.5 µM [inhibitor, single point] |
| O=C(/C=C/c1ccccc1)c1cc(Br)ccc(=O)c1O |  | inconclusive: 35.5 µM [activator, partial curve] |
| Cc1ccc(CNC(=O)C(Cc2ccccc2)NS(=O)(=O)c2ccc(Br)s2)cc1 (configuration not stated) |  | active: 25.1 µM |
| Cc1ccc(C)c(NC(=S)N2CCN(Cc3ccccc3)CC2)c1 |  | inconclusive: 7.94 µM [activator, partial curve, poor fit] |
| O=c1c2ccccc2nc(N/N=C/c2c(O)ccc3ccccc23)n1O |  | inconclusive: 1.12 µM [inhibitor, full curve, poor fit] |
| Cc1ccc(S(=O)(=O)N2CCN(C(=O)c3cccs3)CC2)c(C)c1 |  | inconclusive: 35.5 µM [inhibitor, single point] |
| CC#CC(=O)N1CCC(CO)(CCc2ccccc2)CC1 | inactive: 0.543% [at 9.22 µM] |  |
| O=c1cc(-c2ccco2)oc2c1ccc1ccccc12 |  | inconclusive: 10 µM [inhibitor, partial curve] |
| CCOc1cc(/C=N\Nc2nc(Nc3ccccc3)nc(N3CCOCC3)n2)ccc1OC(=O)c1ccco1 | inactive: -24.4% |  |
| NC(=O)CSc1ncnc2c1nnn2Cc1ccc(F)cc1 |  | inconclusive: 35.5 µM [inhibitor, single point] |
| Oc1ccc(/C=N/N=C(c2ccccc2)c2ccccc2)c(O)c1O |  | inconclusive: 35.5 µM [activator, single point] |

| SMILES | activity change, negative = inhibition | Potency |
| --- | --- | --- |
| CCOC(=O)Cc1c(C)nc2c(-c3ccccc3)c(C)[nH]n2c1=O |  | inconclusive: 15.8 µM [inhibitor, single point] |
| Fc1ccc(COc2ccccc2CNc2nn[nH]n2)cc1 |  | inconclusive: 11.2 µM [activator, partial curve] |
| O=S(=O)(NCC(c1ccccc1)N1CCNCC1)c1ccc(Cl)cc1 (configuration not stated) | inactive: -5.79% |  |
| CCCN(CCC)C(=S)NC(=O)c1ccc(Cl)cc1Cl |  | inconclusive: 25.1 µM [inhibitor, partial curve] |
| O=C(Nc1nnc(-c2ccccc2Cl)o1)c1ccc(S(=O)(=O)N2CCCCCC2)cc1 |  | active: 10 µM |
| O=C(COC(=O)/C=C/C(=O)N1CCN(c2ccccc2)CC1)NC(c1ccccc1)c1ccccc1 | inactive: -6.65% |  |
| Cc1nn(-c2ccccc2)c2[nH]c(=O)c(CNc3ccc(N4CCOCC4)cc3)cc12 |  | inconclusive: 35.5 µM [activator, partial curve] |
| CCCCCC(=O)Nc1ccc(N2CCN(C(=O)c3ccccc3)CC2)cc1 | inactive: -28.7% |  |
| O=C(NCc1ccccn1)c1ccc2c(=O)n(CCc3ccccc3)c(=O)[nH]c2c1 |  | inconclusive: 5.62 µM [activator, single point] |
| CC(C)CNC1=C(C(=S)Nc2ccccc2)C(=O)CC(C)(C)C1 | inactive: -7.66% |  |
| CCN(CC)S(=O)(=O)c1ccc2c(c1)c(C(=O)O)cn2C | inactive: -13.1% |  |
| CC(C)C1NC(=S)N(C2CCCCC2)C1=O (configuration not stated) | inactive: 22.7% |  |
| Fc1nc(F)c(F)c(NCCCNc2c(F)c(F)nc(F)c2F)c1F |  | inconclusive: 35.5 µM [inhibitor, single point] |
| Cc1ccc(C(=O)NC(=S)/C=C2\N(C)c3ccccc3C2(C)C)cc1 | inactive: -25.8% |  |
| COc1ccccc1NC(=O)/C(C#N)=C/c1cc([N+](=O)[O-])ccc1N1CCCC1 | inactive: 16.1% |  |
| CCC(=O)N1CCc2cc(S(=O)(=O)NCCC(=O)N3CC=C(c4ccccc4)CC3)ccc21 |  | inconclusive: 7.08 µM [inhibitor, full curve] |
| O=C(Nc1cc(N2CCOCC2)ncn1)NC1(C(F)(F)F)Oc2ccccc2O1 |  | inconclusive: 35.5 µM [inhibitor, single point] |
| C/C(=C\c1ccccc1)C1NC(=O)c2c(sc3c2CCCC3)N1 (configuration not stated) |  | inconclusive: 5.62 µM [inhibitor, single point] |
| O=C(Nc1ncc2c(n1)-c1ccccc1CC2)c1ccc(F)cc1 |  | inconclusive: 3.98 µM [inhibitor, single point] |
| COc1ccccc1/C=C1\S/C(=N/NC(=O)c2cccc(Br)c2)NC1=O |  | active: 10 µM |
| O=C(Cc1ccccc1)NNC(=S)Nc1ccc(Cl)cc1 | inactive: 10.9% |  |
| CC(C)c1nnc(SCC(=O)NCCC2=CCCCC2)n1N |  | inconclusive: 0.562 µM [inhibitor, full curve, poor fit] |
| O=C(Nc1ccc(N2CCCC2)c(Cl)c1)c1ccc(Br)o1 |  | inconclusive: 35.5 µM [inhibitor, single point] |
| Cc1cccc(NC(=O)COC(=O)CNC(=O)C2CCCCC2)c1 | inactive: 11.5% |  |

Part of the list above, with tabs:
SMILES	activity change, negative = inhibition	Potency
Cc1cc(N/N=C2/CCCc3ccccc32)nc2ccccc12		inconclusive: 35.5 µM [inhibitor, single point]
CCOC(=O)c1c(-c2ccc(C)cc2)csc1/N=C(\C)C1=C(O)c2ccccc2C1=O	inactive: 0.394% [at 9.22 µM]	
Cc1cc(C)n2nc(C(=O)OCCOc3ccc(Br)cc3)nc2n1		inconclusive: 2.24 µM [activator, partial curve]
COc1ccc(CCNCc2csc3nc4ccccc4n23)cc1OC		active: 7.08 µM
O=C(O)C(Cc1ccccc1)N1CCS(=O)(=O)CC1 (configuration not stated)	inactive: 4.89%	
COc1ccc(C(=O)C(CCC(CNC(C)(C)C)C(=O)c2ccc(OC)cc2)CNC(C)(C)C)cc1 (configuration not stated)		active: 17.8 µM
c1ccc(CNc2ccc3ccccc3n2)nc1		inconclusive: 35.5 µM [inhibitor, single point]
O=C(/C=C/c1ccccc1)c1cc(Br)ccc(=O)c1O		inconclusive: 35.5 µM [activator, partial curve]
Cc1ccc(CNC(=O)C(Cc2ccccc2)NS(=O)(=O)c2ccc(Br)s2)cc1 (configuration not stated)		active: 25.1 µM
Cc1ccc(C)c(NC(=S)N2CCN(Cc3ccccc3)CC2)c1		inconclusive: 7.94 µM [activator, partial curve, poor fit]
O=c1c2ccccc2nc(N/N=C/c2c(O)ccc3ccccc23)n1O		inconclusive: 1.12 µM [inhibitor, full curve, poor fit]
Cc1ccc(S(=O)(=O)N2CCN(C(=O)c3cccs3)CC2)c(C)c1		inconclusive: 35.5 µM [inhibitor, single point]
CC#CC(=O)N1CCC(CO)(CCc2ccccc2)CC1	inactive: 0.543% [at 9.22 µM]	
O=c1cc(-c2ccco2)oc2c1ccc1ccccc12		inconclusive: 10 µM [inhibitor, partial curve]
CCOc1cc(/C=N\Nc2nc(Nc3ccccc3)nc(N3CCOCC3)n2)ccc1OC(=O)c1ccco1	inactive: -24.4%	
NC(=O)CSc1ncnc2c1nnn2Cc1ccc(F)cc1		inconclusive: 35.5 µM [inhibitor, single point]
Oc1ccc(/C=N/N=C(c2ccccc2)c2ccccc2)c(O)c1O		inconclusive: 35.5 µM [activator, single point]
CCOC(=O)Cc1c(C)nc2c(-c3ccccc3)c(C)[nH]n2c1=O		inconclusive: 15.8 µM [inhibitor, single point]
Fc1ccc(COc2ccccc2CNc2nn[nH]n2)cc1		inconclusive: 11.2 µM [activator, partial curve]
O=S(=O)(NCC(c1ccccc1)N1CCNCC1)c1ccc(Cl)cc1 (configuration not stated)	inactive: -5.79%	

(next part)

| SMILES | activity change, negative = inhibition | Potency |
| --- | --- | --- |
| CCOC(=O)c1c(NC(=O)CN2C(=O)NC3(CCCCC3)C2=O)sc(C)c1-c1ccc(C)cc1 |  | inconclusive: 3.98 µM [activator, full curve, poor fit] |
| Cc1cccc(C(=O)Oc2ccccc2/C=N/Nc2ccc([N+](=O)[O-])cc2)c1 |  | inconclusive: 0.1 µM [activator, full curve, poor fit] |
| COc1ccccc1N=C1SCC(=O)N1c1ccccc1OC | inactive: 15.6% |  |
| O=C(NNC1CC(=O)N(c2ccccc2)C1=O)c1ccccc1Cl (configuration not stated) | inactive: 6.27% [at 9.22 µM] |  |
| Clc1ccc(-c2ccnc(Oc3ccc4ccccc4c3)n2)cc1 |  | inconclusive: 12.6 µM [activator, single point] |
| CC(=O)c1ccc(N2CCN(C(=O)CCS(=O)(=O)c3ccc(C)cc3)CC2)cc1 |  | inconclusive: 22.4 µM [inhibitor, partial curve] |
| Cc1ccc(S(=O)(=O)N2CCCCC2)cc1NC(=O)CSc1ncn[nH]1 | inactive: -2.51% |  |
| CC(C)n1c(-c2ccc(C(C)(C)C)cc2)n[nH]c1=S |  | active: 8.91 µM |
| Cc1ccc(S(=O)(=O)NCCNc2ccc([N+](=O)[O-])cc2C(F)(F)F)cc1 |  | inconclusive: 11.2 µM [inhibitor, single point] |
| O=C(Nc1ccc(N2CCN(C(=O)c3ccccc3)CC2)c(Cl)c1)c1ncn[nH]1 | inactive: -29.1% [at 9.22 µM] |  |
| COC(=O)c1cnn(-c2nc(OC)cc(OC)n2)c1C | inactive: -17.1% |  |
| CCOc1ccc(C(=O)C2CCN(CC(=O)Nc3ccccc3N3CCOCC3)CC2)cc1 |  | inconclusive: 28.2 µM [inhibitor, single point] |
| O=C(Nc1nc(-c2ccccn2)cs1)c1ccco1 |  | inconclusive: 3.55 µM [inhibitor, partial curve] |
| COc1ccc(CS(=O)/C(Cl)=C(/Cl)C(=O)Nc2ccc(OC)nc2)cc1 (configuration not stated) |  | active: 5.01 µM |
| O=C(NC(CSCc1ccccc1)C(=O)N/N=C/c1ccc(O)cc1O)c1ccc([N+](=O)[O-])cc1 (configuration not stated) |  | inconclusive: 2.82 µM [inhibitor, full curve] |
| Cc1nc2cc(Nc3nnc(-c4ccccc4)c4ccccc34)ccc2n1C | inactive: -7.05% |  |
| O=[N+]([O-])c1ccc(C2CCCC/C2=N/OCc2ccc(F)cc2)c([N+](=O)[O-])c1 (configuration not stated) |  | inconclusive: 17.8 µM [inhibitor, single point] |
| CSc1nnc(-c2ccco2)c(-c2ccco2)n1 |  | inconclusive: 12.6 µM [activator, single point] |
| COc1ccc(-n2c(C)c([N+](=O)[O-])c3ccc(O)c(CN4CCCCC4)c32)cc1 |  | active: 10 µM |
| Cc1c(C(=O)N2CCCCC2)sc(NC(=O)C2CC2)c1C#N | inactive: 16.1% |  |
| CC(C)COc1cccc(C(=O)Nc2ccc(S(=O)(=O)N3CCOCC3)cc2)c1 |  | inconclusive: 12.6 µM [inhibitor, single point] |
| Cn1c(N)c(C(=O)c2ccc(F)cc2F)c(=O)n(C)c1=O |  | inconclusive: 5.01 µM [inhibitor, single point] |
| CCCOc1ccc(C(=O)NNC(=S)NC(=O)c2cc(-c3ccc(Cl)cc3)nc3ccccc23)cc1 | inactive: -27.9% |  |
| O=S(=O)(c1ccccc1Cl)N1CCC(O)(c2ccc3c(c2)OCO3)CC1 |  | inconclusive: 35.5 µM [inhibitor, single point] |

Fetched by structure from above, 2 records:

| SMILES | activity change, negative = inhibition | Potency |
| --- | --- | --- |
| CCOc1cc(/C=N\Nc2nc(Nc3ccccc3)nc(N3CCOCC3)n2)ccc1OC(=O)c1ccco1 | inactive: -24.4% |  |
| COc1ccc(C(=O)C(CCC(CNC(C)(C)C)C(=O)c2ccc(OC)cc2)CNC(C)(C)C)cc1 (configuration not stated) |  | active: 17.8 µM |
